{
  "source": "PubChem BioAssay AID1347076",
  "about": "(National Center for Advancing Translational Sciences (NCATS), 2019)",
  "note": "Screen size: about 400,000 compounds; about 13,000 (3.2%) were called active. Inconclusive results, whose numbers are uncertain, are shown with a selection of clear calls. The call rests on the fitted dose curve; in most records, active means well fitted cell-killing curve with a large enough effect; inconclusive means small, poorly fitted or top-dose-only effect, or effect the other way; inactive means flat fitted curve, though single readings scatter. Potencies beside an inconclusive call are fits to weak or partial responses and may not hold up. On the % scale 0 is the no-effect control and ±100 the full control effect; potency means the concentration at half of the fitted maximal effect.",
  "data": [
    {"assay": "qHTS assay for MDR1-selective chemotherapeutics: Primary screen using the drug-selected MDR subline cells KB-V1; further: nearly all actives have a fitted effect of over 60% in size", "details": "KB-V1 MDR cells viability, CellTiter-Glo, 72 h; activity change, negative = cytotoxicity: at 46.1 µM (top of the series)", "in_short": "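Following 72 h at 37 degrees C with compound, KB-V1 cell viability was read by CellTiter-Glo luminescence, medium being phenol-red-free DMEM plus 10% FBS; concentration-response parameters came from normalized, curve-fitted qHTS data.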", "values": [
      {"smiles": "CCC/C=C/c1ccc(CN2C(CC(C)C)C(=O)N(Cc3cn(CCC4OCCCO4)nn3)CCS2(=O)=O)cc1", "note": "(stereo unspecified)", "Potency": "inconclusive: 14.6 µM [cytotoxic, partial curve, poor fit]"},
      {"smiles": "Cc1nc2c(-c3ccc(F)cc3)c(C)nn2c(C)c1CCC(=O)Nc1ccccc1F", "Potency": "inconclusive: 20.6 µM [cytotoxic, partial curve, poor fit]"},
      {"smiles": "Cn1c(=O)c2cc(NC(=O)NCCc3cccs3)ccc2n1C/C=C/c1ccccc1", "activity change, negative = cytotoxicity": "inactive: -28.9%"},
      {"smiles": "COc1ccc(CCn2c(=N)c(C(=O)NC3CCCCC3)cc3c(=O)n4ccccc4nc32)cc1", "Potency": "inconclusive: 23.1 µM [cytotoxic, single point]"},
      {"smiles": "CCCCCNC(=O)C(C#N)c1nc2ccccc2nc1N1CCCC1", "note": "(stereo unspecified)", "activity change, negative = cytotoxicity": "inactive: 0%"},
      {"smiles": "Cc1sc(NC(=O)c2ccco2)c(C(c2cccnc2)N2CCC(C)CC2)c1C", "note": "(stereo unspecified)", "Potency": "inconclusive: 20.6 µM [cytotoxic, single point]"},
      {"smiles": "c1ccc(N2CCN(Cc3cccn3-c3nnc(N4CCN(C5CCCCC5)CC4)s3)CC2)cc1", "Potency": "inconclusive: 29.1 µM [rising, single point]"},
      {"smiles": "O=C(NCC(F)(F)F)c1cc2c(c(-c3cccc(-c4ccccc4F)c3)n1)[C@H](CCO)N(C(=O)CC1CC1)C2", "Potency": "active: 16.4 µM"},
      {"smiles": "COc1cc2[nH]c(=S)nc(NCC3CCCO3)c2cc1OC", "note": "(stereo unspecified)", "activity change, negative = cytotoxicity": "inactive: 1.4%"},
      {"smiles": "COc1ccc(/C=C\\C(=O)CC(O)(c2ccccc2)C(F)(F)F)cc1", "note": "(stereo unspecified)", "Potency": "inconclusive: 18.4 µM [cytotoxic, single point]"},
      {"smiles": "O=C(c1noc2c1CCCC2)N1CCN(c2ccccc2)CC1", "Potency": "active: 18.4 µM"},
      {"smiles": "CCOc1ccc(CCNC(=O)c2nn(-c3ccc(OC)c(Cl)c3)c(=O)c3c2c2ccccc2n3C)cc1OCC", "activity change, negative = cytotoxicity": "inactive: 1.47%"},
      {"smiles": "CS(=O)(=O)N1CCN(c2ccc([N+](=O)[O-])c(NCc3cccnc3)c2)CC1", "Potency": "inconclusive: 2.91 µM [cytotoxic, full curve, poor fit]"},
      {"smiles": "Cc1[nH]c2ccccc2c1C(=O)COC(=O)c1c(-c2c(F)cccc2Cl)noc1C", "Potency": "active: 16.4 µM"},
      {"smiles": "Brc1cccc(-c2nnc3sc(CN4CCCCC4)cn23)c1", "Potency": "inconclusive: 10.3 µM [cytotoxic, partial curve, poor fit]"},
      {"smiles": "Nc1ncnc2oc(-c3ccco3)c(-c3ccco3)c12", "Potency": "active: 20.6 µM"},
      {"smiles": "CCS(=O)(=O)N1Cc2ccccc2CC1C(=O)Nc1ccc(F)cc1", "note": "(stereo unspecified)", "Potency": "inconclusive: 20.6 µM [cytotoxic, single point]"},
      {"smiles": "COc1ccc2c(c1)C(=NN)c1cc(OC)ccc1-2", "Potency": "active: 10.3 µM"},
      {"smiles": "O=C(CCl)N(c1ccccc1)c1ccccc1", "Potency": "inconclusive: 18.4 µM [cytotoxic, single point]"},
      {"smiles": "Cc1ccc(N2CC(C(=O)Nc3c4c(nn3C(C)(C)C)CS(=O)(=O)C4)CC2=O)cc1", "note": "(stereo unspecified)", "Potency": "inconclusive: 23.1 µM [cytotoxic, single point]"},
      {"smiles": "O=C1NC[C@H](CCCCN2C[C@H](Cc3ccc(O)cc3)N(Cc3ccccc3)C(=O)C2=O)N(Cc2ccccc2)C1=O", "activity change, negative = cytotoxicity": "inactive: 12%"},
      {"smiles": "COc1cccc(CNc2nc3cc(-c4ccccc4C)sc3c(=O)n2C)c1OC", "activity change, negative = cytotoxicity": "inactive: 0%"},
      {"smiles": "C=CCOC(=O)C1=C(C)NC(SCC(=O)N(CC)CC)=C(C#N)C1c1ccco1", "note": "(stereo unspecified)", "Potency": "inactive"},
      {"smiles": "COc1cccc(C(=O)Nc2cccnc2)c1OC", "activity change, negative = cytotoxicity": "inactive: 8.39%"},
      {"smiles": "Cc1nn(-c2ccccc2)c(-n2cccc2)c1C(=O)NCCc1ccc(Cl)cc1", "Potency": "inconclusive: 29.1 µM [cytotoxic, single point]"},
      {"smiles": "CCC(=O)N1N=C(c2cccs2)CC1c1ccco1", "note": "(stereo unspecified)", "activity change, negative = cytotoxicity": "inactive: 0%"},
      {"smiles": "O=C(CCCn1c(SCC(=O)NC2CCCCC2)nc2ccccc2c1=O)NCC1CCCO1", "note": "(stereo unspecified)", "Potency": "inconclusive: 13 µM [cytotoxic, single point]"},
      {"smiles": "Cc1ccccc1NC(=O)c1cccc2nccnc12", "Potency": "inconclusive: 18.4 µM [cytotoxic, single point]"},
      {"smiles": "O=C(Nc1ccc(O)cc1)c1cc2ccccc2c(=O)s1", "Potency": "inconclusive: 29.1 µM [cytotoxic, single point]"},
      {"smiles": "N#Cc1ccc(NC(=S)Nc2ccccc2)cc1", "Potency": "inconclusive: 20.6 µM [cytotoxic, single point]"},
      {"smiles": "O=C(Nc1cccc(Cl)c1)c1ccc(F)c(S(=O)(=O)NCc2ccc3c(c2)OCO3)c1", "Potency": "inconclusive: 18.4 µM [cytotoxic, single point]"},
      {"smiles": "O=C(NCCc1cccs1)c1ccc(Cl)cc1", "activity change, negative = cytotoxicity": "inactive: -3.58%"},
      {"smiles": "CCN(C(=O)CSc1nnc(-c2cccs2)n1CC)C1CCS(=O)(=O)C1", "note": "(stereo unspecified)", "activity change, negative = cytotoxicity": "inactive: 18%"},
      {"smiles": "CCCC(=O)N1CCN(c2ccc(NC(=O)c3ccccc3)cc2)CC1", "Potency": "inconclusive: 32.6 µM [cytotoxic, single point]"},
      {"smiles": "CCc1nn(CC(=O)NCc2cccnc2)c(=O)c2cc3occc3n12", "activity change, negative = cytotoxicity": "inactive: 0.934%"},
      {"smiles": "CN(C(=O)COc1ccc(Br)cc1Cl)C1CCCCC1", "Potency": "inconclusive: 23.1 µM [cytotoxic, single point]"},
      {"smiles": "CCOc1cc(CNc2cccc3ccccc23)cc(Br)c1OCC(=O)NC(C)(C)C", "Potency": "inconclusive: 16.4 µM [cytotoxic, single point]"},
      {"smiles": "Cc1sc(NC(=O)CN(Cc2ccccc2)C(=O)C2CC2)c(C(N)=O)c1C", "Potency": "inconclusive: 29.1 µM [cytotoxic, single point]"},
      {"smiles": "COc1ccc(N2CCN(C(=O)CC34CC5CC(CC(C5)C3)C4)CC2)c([N+](=O)[O-])c1", "Potency": "active: 18.4 µM"},
      {"smiles": "Nc1ccc2oc3ncccc3c(=O)c2c1", "activity change, negative = cytotoxicity": "inactive: -24.8%"},
      {"smiles": "C=CCN(c1ccccc1)S(=O)(=O)c1cccc(C(=O)NCc2ccco2)c1", "Potency": "active: 18.4 µM"},
      {"smiles": "CC(C)N1C(=O)/C(=C\\c2nc3ccccc3c(=O)n2-c2ccccc2)c2ccccc21", "Potency": "inconclusive: 25.9 µM [cytotoxic, partial curve, poor fit]"},
      {"smiles": "CN(CC(=O)Nc1ccccc1C(=O)NC1CC1)Cc1ccco1", "activity change, negative = cytotoxicity": "inactive: -10.7%"},
      {"smiles": "CCOC(=O)c1c(NC(=O)CSc2ncnc3ccccc23)sc(C(C)=O)c1C", "Potency": "inconclusive: 20.6 µM [cytotoxic, single point]"},
      {"smiles": "COc1ccc(C2CC(c3ccccc3)=NN2c2ccc(S(N)(=O)=O)cc2)cc1", "note": "(stereo unspecified)", "Potency": "inconclusive: 20.6 µM [cytotoxic, single point]"},
      {"smiles": "N#CC(C#N)=CNc1cccnc1", "Potency": "inconclusive: 13 µM [rising, single point]"},
      {"smiles": "O=C(NCc1ccccc1Cl)C1CCC(CNc2c(N3CCCCC3)c(=O)c2=O)CC1", "note": "(stereo unspecified)", "Potency": "inconclusive: 2.91 µM [rising, full curve]"},
      {"smiles": "O=C1NC[C@H](CCCCN2CCN(CCc3ccccc3)C(=O)C2=O)N(CC2CCCCC2)C1=O", "Potency": "inconclusive: 16.4 µM [rising, single point]"},
      {"smiles": "O=C(CC(=O)c1ccccc1)Nc1ccccc1", "activity change, negative = cytotoxicity": "inactive: 16.5%"},
      {"smiles": "Cc1csc2nc3cc(C(N)=O)ccc3c(=O)n12", "Potency": "inconclusive: 18.4 µM [rising, partial curve, poor fit]"},
      {"smiles": "COc1ccc(-n2c3c(c(=O)[nH]c2=O)C(C(F)(F)F)(C(F)(F)F)N=C(CC(C)C)N3)cc1", "Potency": "inconclusive: 13 µM [cytotoxic, partial curve, poor fit]"},
      {"smiles": "Cc1c(NC(=O)COC(=O)/C=C/c2cccc(F)c2)c(=O)n(-c2ccccc2)n1C", "activity change, negative = cytotoxicity": "inactive: 6.17%"},
      {"smiles": "Cc1ccc(C(O)c2ncc(-c3ccc4ccccc4c3)[nH]2)cc1F", "note": "(stereo unspecified)", "activity change, negative = cytotoxicity": "inactive: 5.07%"},
      {"smiles": "CN(CC(=O)Nc1ccccc1Cl)C(=O)COC(=O)CSc1ccc(Cl)cc1", "Potency": "inconclusive: 10.3 µM [cytotoxic, single point]"},
      {"smiles": "NC(=O)C1CCN(CC(=O)Nc2ccccc2Sc2ccccc2)CC1", "Potency": "active: 20.6 µM"},
      {"smiles": "O=C(CSC1=NCCS1)N1CCCC1", "activity change, negative = cytotoxicity": "inactive: -5.25%"},
      {"smiles": "Cc1cc(SCC(=O)c2ccc(O)c(O)c2)nc2ccccc12", "Potency": "inconclusive: 18.4 µM [cytotoxic, single point]"},
      {"smiles": "CC(C)COP(=O)(OCC(C)C)C(Nc1ccccc1)c1ccc2c(c1)OCO2", "note": "(stereo unspecified)", "Potency": "active: 6.51 µM"},
      {"smiles": "O=C(Nc1ccc2oc(-c3cccnc3)nc2c1)c1ccc(Br)cc1", "Potency": "inconclusive: 3.66 µM [cytotoxic, full curve, poor fit]"},
      {"smiles": "CCCn1c(SC(C)C(=O)NC2CC2)nnc1-c1ccncc1", "note": "(stereo unspecified)", "Potency": "inconclusive: 29.1 µM [rising, single point]"},
      {"smiles": "COCC1CCN(C(=O)CCc2nnc(C3(c4ccc(Cl)cc4)CCC3)o2)C1", "note": "(stereo unspecified)", "Potency": "inconclusive: 10.3 µM [cytotoxic, partial curve]"},
      {"smiles": "S=C(NC1CCCC1)N1CCN(c2ccc(Cl)cc2)CC1", "Potency": "inconclusive: 29.1 µM [cytotoxic, single point]"},
      {"smiles": "O=C(O)c1ccccc1C(=O)Nc1nc(-c2ccc3ccccc3c2)cs1", "Potency": "inconclusive: 29.1 µM [rising, single point]"},
      {"smiles": "O=C(c1cc([N+](=O)[O-])ccc1Cl)N1CCN(c2ccc([N+](=O)[O-])cc2)CC1", "Potency": "inconclusive: 9.2 µM [cytotoxic, partial curve]"},
      {"smiles": "COc1ccc(-c2csc(N(CCc3ccc(OC)c(OC)c3)C(=O)COc3ccccc3)n2)cc1", "Potency": "active: 3.66 µM"},
      {"smiles": "COC(=O)c1scc(-c2ccc(C)cc2)c1S(=O)(=O)Nc1ccc(F)cc1F", "activity change, negative = cytotoxicity": "inactive: 12.4%"},
      {"smiles": "O=C(Nc1ccccc1Br)c1ccc(N2CCCC2=O)cc1", "Potency": "inconclusive: 20.6 µM [cytotoxic, single point]"},
      {"smiles": "COc1ccc(CNS(=O)(=O)c2ccc3c(c2)CC(C)N3C(=O)C2CC2)cc1", "note": "(stereo unspecified)", "Potency": "inconclusive: 29.1 µM [cytotoxic, single point]"},
      {"smiles": "CCc1nc2ccc(C(=O)NC3CCN(Cc4ccccc4)CC3)cn2c1N(CC)Cc1cccc(Br)c1", "Potency": "active: 8.2 µM"},
      {"smiles": "Cc1ccc(N2CCN(S(=O)(=O)c3cc(C(=O)Nc4cc(Cl)cc(Cl)c4)ccc3F)CC2C)cc1", "note": "(stereo unspecified)", "Potency": "inconclusive: 16.4 µM [cytotoxic, single point]"},
      {"smiles": "Cc1ccc(CN2CCCn3nc(C(=O)NC(C)C)cc3C2=O)cc1", "activity change, negative = cytotoxicity": "inactive: -9.89%"}
    ]}
  ]
}
